Test results taken from paper PMC11549447.
Changes are numbered by the printed parent chain. Results are given in words; binding and its absence hold for the method and conditions named. In cells and extracts the contact can be indirect. Some entries that bind do so weakly or less than the wild type. For part of these data: Where a sequence is shown, tags or fusion partners need not be part of it.

Amino acid sequences for entries named in this document (tags omitted).
UniProt P04150: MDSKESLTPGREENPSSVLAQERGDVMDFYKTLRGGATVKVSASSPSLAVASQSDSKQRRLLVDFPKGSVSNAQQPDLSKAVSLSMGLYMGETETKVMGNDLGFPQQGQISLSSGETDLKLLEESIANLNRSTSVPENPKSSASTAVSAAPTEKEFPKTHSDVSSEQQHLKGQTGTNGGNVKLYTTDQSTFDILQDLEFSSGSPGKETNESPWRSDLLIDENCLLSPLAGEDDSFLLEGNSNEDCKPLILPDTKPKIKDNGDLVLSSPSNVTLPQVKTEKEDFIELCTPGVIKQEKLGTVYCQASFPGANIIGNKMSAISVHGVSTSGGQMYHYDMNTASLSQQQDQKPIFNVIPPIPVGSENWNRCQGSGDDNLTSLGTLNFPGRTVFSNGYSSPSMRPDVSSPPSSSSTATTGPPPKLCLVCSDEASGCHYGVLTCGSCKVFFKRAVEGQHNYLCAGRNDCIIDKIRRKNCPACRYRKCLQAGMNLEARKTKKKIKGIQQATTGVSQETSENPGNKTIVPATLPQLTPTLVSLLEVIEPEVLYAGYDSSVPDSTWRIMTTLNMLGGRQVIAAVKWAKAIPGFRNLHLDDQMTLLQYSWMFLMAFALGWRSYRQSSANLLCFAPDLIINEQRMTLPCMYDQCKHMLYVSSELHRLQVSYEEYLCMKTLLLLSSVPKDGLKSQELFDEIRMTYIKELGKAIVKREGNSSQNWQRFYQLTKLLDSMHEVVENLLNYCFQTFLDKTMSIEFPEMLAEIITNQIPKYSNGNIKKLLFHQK

Experiments:
[1] = target: SUMO-1-PP5: PP5-FLAG SUMOylated in cells with SUMO-1-HA (UniProt P53041); assay: co-IP; HEK293 cells co-transfected with PP5-FLAG WT and SUMO-1-HA; FLAG IP (IP:1, SUMOylated and non-SUMOylated PP5), then HA IP (IP:2, only SUMOylated PP5); Hsp90 and GR by immunoblot
[2] = target: T1, serine/threonine protein phosphatase 5 (PP5), wild-type PP5-FLAG (UniProt P53041); assay: co-IP; PP5-FLAG WT or K430R isolated from HEK293 cells, incubated with ATP with or without recombinant SUMO-1 (in vitro SUMOylation kit, 37 °C, 60 min); FLAG IP, GR by immunoblot
T1 sequence: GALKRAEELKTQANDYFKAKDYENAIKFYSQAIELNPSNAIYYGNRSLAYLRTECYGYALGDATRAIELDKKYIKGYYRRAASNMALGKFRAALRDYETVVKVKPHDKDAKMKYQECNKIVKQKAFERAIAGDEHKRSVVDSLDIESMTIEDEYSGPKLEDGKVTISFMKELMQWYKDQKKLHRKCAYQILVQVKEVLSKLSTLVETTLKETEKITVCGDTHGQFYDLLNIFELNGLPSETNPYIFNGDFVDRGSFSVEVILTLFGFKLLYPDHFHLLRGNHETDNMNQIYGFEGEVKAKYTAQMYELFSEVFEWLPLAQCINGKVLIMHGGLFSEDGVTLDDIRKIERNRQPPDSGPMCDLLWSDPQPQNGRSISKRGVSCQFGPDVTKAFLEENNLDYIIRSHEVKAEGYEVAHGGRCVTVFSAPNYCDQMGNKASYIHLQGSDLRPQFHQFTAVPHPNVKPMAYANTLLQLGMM

[3] = target: T2, PP5-FLAG-K430R, non-SUMOylatable mutant (UniProt P53041); assay: as above
T2 sequence: T1 sequence with K408R

[4] = target: hyper-SUMOylated PP5-WT: PP5-FLAG SUMOylated in vitro with recombinant SUMO-1 (UniProt P53041); assay: as above
PP5-FLAG-K430A = target: T3, PP5-FLAG-K430A (UniProt P53041); assay: co-IP; anti-FLAG agarose IP of PP5-FLAG (WT or mutants) from lysate of transfected HEK293 cells, 2 h at 4 °C; washes in 20 mM Tris-HCl pH 7.4, 100 mM NaCl, 1 mM MgCl2, 0.1% NP40; endogenous partners by immunoblot; some panels with CK1δ-myc co-expressed or 2 µM IC261 for 16 h
T3 sequence: T1 sequence with K408A

[5] = target: T4, PP5-FLAG-K97E/R101E, TPR domain mutant (UniProt P53041); assay: as above
T4 sequence: T1 sequence with K75E, R79E

With “glucocorticoid receptor (GR), endogenous (from UniProt P04150 1-777)” the binding [1] was “no binding”, the binding [2] was “binds” and the binding [3] was “binds”. For the same substance, the binding [4] was “no binding”, the binding (PP5-FLAG-K430A) was “binds” and the binding [5] was “no binding”.
